Data as given in PubChem BioAssay AID1224830 (NIAID, 2016).
Purpose: 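Host factors that control LPS-induced TNF expression in human macrophages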 (primary screen). System: human THP-1 monocytic leukaemia cells, TNF dual-luciferase reporter clone, PMA-differentiated to macrophage-like cells. Knock-down reagent: siRNA pool against human genes, 50 nM. Timing: LPS for 4 h, given about 3 days after siRNA transfection. Conditions: bacterial LPS (TLR4 ligand), 10 ng/ml. Measured: 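TNF firefly reporter luminescence divided by renilla, normalised to the plate median, then turned into a robust z-score for each replicate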. Direction: TNF reporter robust z-score: higher = stronger TNF reporter response to LPS. Call rule: 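a well is active when its z-score exceeds 2.8 or falls below -1.5; control wells carry no call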.
In all, the deposit lists about 18,000 reagents; this is a part drawn at random. About 2,900 of all reagents (16%) count as active. 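Calls are made per well; low scores hint the gene aids the LPS response, high scores that it dampens it.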 Repeated entries: four replicate wells of each siRNA pool.

no.	gene	TNF reporter robust z-score	Call
1	PSMG2 (proteasome assembly chaperone 2)	0.38	inactive
2	PSMG2 (proteasome assembly chaperone 2)	1.37	inactive
3	PSMG2 (proteasome assembly chaperone 2)	-0.02	inactive
4	PSMG2 (proteasome assembly chaperone 2)	4.65	active
5	HEMGN (hemogen)	-0.11	inactive
6	HEMGN (hemogen)	-0.52	inactive
7	HEMGN (hemogen)	-0.38	inactive
8	HEMGN (hemogen)	-0.47	inactive
9	UBE2V2 (ubiquitin conjugating enzyme E2 V2)	-1.29	inactive
10	UBE2V2 (ubiquitin conjugating enzyme E2 V2)	0.11	inactive
11	UBE2V2 (ubiquitin conjugating enzyme E2 V2)	-0.61	inactive
12	UBE2V2 (ubiquitin conjugating enzyme E2 V2)	-0.8	inactive
13	ARL10 (ARF like GTPase 10)	2.5	inactive
14	ARL10 (ARF like GTPase 10)	1.37	inactive
15	ARL10 (ARF like GTPase 10)	0.32	inactive
16	ARL10 (ARF like GTPase 10)	-0.07	inactive
17	NR3C1 (nuclear receptor subfamily 3 group C member 1)	0.36	inactive
18	NR3C1 (nuclear receptor subfamily 3 group C member 1)	1.39	inactive
19	NR3C1 (nuclear receptor subfamily 3 group C member 1)	0.75	inactive
20	NR3C1 (nuclear receptor subfamily 3 group C member 1)	1.7	inactive
21	C1orf174 (chromosome 1 open reading frame 174)	-1.47	inactive
22	C1orf174 (chromosome 1 open reading frame 174)	-0.91	inactive
23	C1orf174 (chromosome 1 open reading frame 174)	-1.13	inactive
24	C1orf174 (chromosome 1 open reading frame 174)	-1.06	inactive
25	SPTBN4 (spectrin beta, non-erythrocytic 4)	-0.1	inactive
26	SPTBN4 (spectrin beta, non-erythrocytic 4)	-0.23	inactive
27	SPTBN4 (spectrin beta, non-erythrocytic 4)	-0.01	inactive
28	SPTBN4 (spectrin beta, non-erythrocytic 4)	-0.35	inactive
29	GP5 (glycoprotein V platelet)	1.78	inactive
30	GP5 (glycoprotein V platelet)	2.57	inactive
31	GP5 (glycoprotein V platelet)	2.56	inactive
32	GP5 (glycoprotein V platelet)	0.65	inactive

In a second layout: results already given.
NR3C1 (nuclear receptor subfamily 3 group C member 1): TNF reporter robust z-score = 1.39; Call = inactive
NR3C1 (nuclear receptor subfamily 3 group C member 1): TNF reporter robust z-score = 0.75; Call = inactive
NR3C1 (nuclear receptor subfamily 3 group C member 1): TNF reporter robust z-score = 1.7; Call = inactive
C1orf174 (chromosome 1 open reading frame 174): TNF reporter robust z-score = -1.47; Call = inactive
C1orf174 (chromosome 1 open reading frame 174): TNF reporter robust z-score = -0.91; Call = inactive

Next records follow:
no.	gene	TNF reporter robust z-score	Call
33	LAMTOR3 (late endosomal/lysosomal adaptor, MAPK and MTOR activator 3)	0.88	inactive
34	LAMTOR3 (late endosomal/lysosomal adaptor, MAPK and MTOR activator 3)	0.03	inactive
35	LAMTOR3 (late endosomal/lysosomal adaptor, MAPK and MTOR activator 3)	0.41	inactive
36	LAMTOR3 (late endosomal/lysosomal adaptor, MAPK and MTOR activator 3)	0.72	inactive
37	PEX2 (peroxisomal biogenesis factor 2)	40.4	active
38	PEX2 (peroxisomal biogenesis factor 2)	-1.04	inactive
39	PEX2 (peroxisomal biogenesis factor 2)	-1.01	inactive
40	PEX2 (peroxisomal biogenesis factor 2)	-0.64	inactive
41	OR2G2 (olfactory receptor family 2 subfamily G member 2)	0.09	inactive
42	OR2G2 (olfactory receptor family 2 subfamily G member 2)	2.46	inactive
43	OR2G2 (olfactory receptor family 2 subfamily G member 2)	0.07	inactive
44	OR2G2 (olfactory receptor family 2 subfamily G member 2)	1.75	inactive
45	IL2RA (interleukin 2 receptor subunit alpha)	1.81	inactive
46	IL2RA (interleukin 2 receptor subunit alpha)	2.33	inactive
47	IL2RA (interleukin 2 receptor subunit alpha)	2.32	inactive
48	IL2RA (interleukin 2 receptor subunit alpha)	1.4	inactive
